From doi:10.1101/2022.07.18.500419 come the findings set out here.

By UniProt entry, the sequences of proteins in these tests, tags left out. Residues count along the entry.
UniProt Q8IFM5, 25-526: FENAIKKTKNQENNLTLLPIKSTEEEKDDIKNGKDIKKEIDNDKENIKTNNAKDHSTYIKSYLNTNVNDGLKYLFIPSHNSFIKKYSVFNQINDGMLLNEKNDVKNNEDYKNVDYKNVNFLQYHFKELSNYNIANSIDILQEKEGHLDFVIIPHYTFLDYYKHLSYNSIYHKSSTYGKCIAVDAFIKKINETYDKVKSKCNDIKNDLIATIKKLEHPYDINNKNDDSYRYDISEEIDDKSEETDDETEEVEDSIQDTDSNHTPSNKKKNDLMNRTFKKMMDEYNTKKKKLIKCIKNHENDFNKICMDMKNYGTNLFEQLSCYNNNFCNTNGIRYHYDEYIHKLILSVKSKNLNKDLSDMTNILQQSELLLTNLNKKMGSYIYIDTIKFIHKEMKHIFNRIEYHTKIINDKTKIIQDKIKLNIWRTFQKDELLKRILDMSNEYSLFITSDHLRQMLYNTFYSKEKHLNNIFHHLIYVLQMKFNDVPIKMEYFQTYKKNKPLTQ

The test addresses full-length recombinant RH5 protein with His-tag (reticulocyte binding protein homologue 5) (Plasmodium falciparum) (UniProt Q8IFM5). Kind of test: pull-down.

No constants are given. Whether binding was seen depends on the method and setting. In cells and extracts the contact can be indirect. Binding can be weak; no strength is given.

In the case of CD44 (from UniProt P16070-12), the binding entry is given as “binds”.
